Data from article PMC3919609.

Legend:
Assay in all cases: binding assay
[1] = target: RA three-finger array, finger 2 DSSNLRS E352N,T354R,R355A,R377D,D379S,H380N,T382R,T383S,D407A,E408N,R409L,K410V (synthetic construct (mouse Zif268 scaffold)) (UniProt P08046); conditions: Zn, 100 nM beta-estradiol; yeast GFP reporter, 12 h induction, 3 biological replicates; residues 333-418; letters built from the parent sequence and the stated change; variant of RA-CAC; counted as no binding; scale: mean GFP / mean GFP of Zif268 on its consensus site
[2] = target: RA three-finger array, finger 2 HSSNLTH E352N,T354R,R355A,R377H,D379S,H380N,T383H,D407A,E408N,R409L,K410V (synthetic construct (mouse Zif268 scaffold)) (UniProt P08046); conditions: Zn, 100 nM beta-estradiol; yeast GFP reporter, 12 h induction, 3 biological replicates; residues 333-418; letters built from the parent sequence and the stated change; variant of RA-CAC; counted as no binding; scale: mean GFP / mean GFP of Zif268 on its consensus site
[3] = target: RA three-finger array, finger 2 QSGNLTE E352N,T354R,R355A,R377Q,D379G,H380N,T383E,D407A,E408N,R409L,K410V (synthetic construct (mouse Zif268 scaffold)) (UniProt P08046); conditions: Zn, 100 nM beta-estradiol; yeast GFP reporter, 12 h induction, 3 biological replicates; residues 333-418; letters built from the parent sequence and the stated change; variant of RA-CAA; counted as no binding; scale: mean GFP / mean GFP of Zif268 on its consensus site
[4] = target: RA three-finger array, finger 2 RADNLTE E352N,T354R,R355A,S378A,H380N,T383E,D407A,E408N,R409L,K410V (synthetic construct (mouse Zif268 scaffold)) (UniProt P08046); conditions: Zn, 100 nM beta-estradiol; yeast GFP reporter, 12 h induction, 3 biological replicates; residues 333-418; letters built from the parent sequence and the stated change; variant of RA-CAG; counted as no binding; scale: mean GFP / mean GFP of Zif268 on its consensus site
[5] = target: RA three-finger array, finger 2 RSDNLTR E352N,T354R,R355A,H380N,T383R,D407A,E408N,R409L,K410V (synthetic construct (mouse Zif268 scaffold)) (UniProt P08046); conditions: Zn, 100 nM beta-estradiol; yeast GFP reporter, 12 h induction, 3 biological replicates; residues 333-418; letters built from the parent sequence and the stated change; variant of RA-GAG; counted as no binding; scale: mean GFP / mean GFP of Zif268 on its consensus site
[6] = target: RA three-finger array, finger 2 SKKALTE E352N,T354R,R355A,R377S,S378K,D379K,H380A,T383E,D407A,E408N,R409L,K410V (synthetic construct (mouse Zif268 scaffold)) (UniProt P08046); conditions: Zn, 100 nM beta-estradiol; yeast GFP reporter, 12 h induction, 3 biological replicates; residues 333-418; letters built from the parent sequence and the stated change; variant of RA-CAC; counted as no binding; scale: mean GFP / mean GFP of Zif268 on its consensus site
[7] = target: RA three-finger array, finger 2 TSGNLTE E352N,T354R,R355A,R377T,D379G,H380N,T383E,D407A,E408N,R409L,K410V (synthetic construct (mouse Zif268 scaffold)) (UniProt P08046); conditions: Zn, 100 nM beta-estradiol; yeast GFP reporter, 12 h induction, 3 biological replicates; residues 333-418; letters built from the parent sequence and the stated change; variant of RA-CAT; counted as no binding; scale: mean GFP / mean GFP of Zif268 on its consensus site
[8] = target: RA three-finger array, finger 2 TSYNLTR E352N,T354R,R355A,R377T,D379Y,H380N,T383R,D407A,E408N,R409L,K410V (synthetic construct (mouse Zif268 scaffold)) (UniProt P08046); conditions: Zn, 100 nM beta-estradiol; yeast GFP reporter, 12 h induction, 3 biological replicates; residues 333-418; letters built from the parent sequence and the stated change; variant of RA-GAG; counted as no binding; scale: mean GFP / mean GFP of Zif268 on its consensus site
[9] = target: Zif three-finger array, finger 2 QSGNLKS R377Q,D379G,H380N,T382K,T383S,D407A,E408N,R409L,K410V (synthetic construct (mouse Zif268 scaffold)) (UniProt P08046); conditions: Zn; E. coli B1H, 28-bp random library, 5 or 20 mM 3-AT, 37 C; residues 333-418; only the motif is given
[10] = target: Zif three-finger array, finger 2 RSDNLRS H380N,T382R,T383S,D407A,E408N,R409L,K410V (synthetic construct (mouse Zif268 scaffold)) (UniProt P08046); conditions: Zn; E. coli B1H, 28-bp random library, 5 or 20 mM 3-AT, 37 C; residues 333-418; only the motif is given
[11] = target: RA three-finger array, finger 2 ASSNLRA E352N,T354R,R355A,R377A,D379S,H380N,T382R,T383A,D407A,E408N,R409L,K410V (synthetic construct (mouse Zif268 scaffold)) (UniProt P08046); conditions: Zn, 100 nM beta-estradiol; yeast GFP reporter, 12 h induction, 3 biological replicates; residues 333-418; letters built from the parent sequence and the stated change; variant of RA-CAT; counted as no binding; scale: mean GFP / mean GFP of Zif268 on its consensus site
[12] = target: RA three-finger array, finger 2 QSGNLKS E352N,T354R,R355A,R377Q,D379G,H380N,T382K,T383S,D407A,E408N,R409L,K410V (synthetic construct (mouse Zif268 scaffold)) (UniProt P08046); conditions: Zn, 100 nM beta-estradiol; yeast GFP reporter, 12 h induction, 3 biological replicates; residues 333-418; letters built from the parent sequence and the stated change; variant of RA-CAA; counted as no binding; scale: mean GFP / mean GFP of Zif268 on its consensus site
[13] = target: RA three-finger array, finger 2 RSGNLRS E352N,T354R,R355A,D379G,H380N,T382R,T383S,D407A,E408N,R409L,K410V (synthetic construct (mouse Zif268 scaffold)) (UniProt P08046); conditions: Zn, 100 nM beta-estradiol; yeast GFP reporter, 12 h induction, 3 biological replicates; residues 333-418; letters built from the parent sequence and the stated change; variant of RA-CAG; counted as no binding; scale: mean GFP / mean GFP of Zif268 on its consensus site
[14] = target: RA three-finger array, finger 2 TSWNLRS E352N,T354R,R355A,R377T,D379W,H380N,T382R,T383S,D407A,E408N,R409L,K410V (synthetic construct (mouse Zif268 scaffold)) (UniProt P08046); conditions: Zn, 100 nM beta-estradiol; yeast GFP reporter, 12 h induction, 3 biological replicates; residues 333-418; letters built from the parent sequence and the stated change; variant of RA-CAG; counted as no binding; scale: mean GFP / mean GFP of Zif268 on its consensus site
[15] = target: Zif three-finger array, finger 2 ASSNLRA R377A,D379S,H380N,T382R,T383A,D407A,E408N,R409L,K410V (synthetic construct (mouse Zif268 scaffold)) (UniProt P08046); conditions: Zn; E. coli B1H, 28-bp random library, 5 or 20 mM 3-AT, 37 C; residues 333-418; only the motif is given
[16] = target: RA three-finger array, finger 2 RSDGLRM E352N,T354R,R355A,H380G,T382R,T383M,D407A,E408N,R409L,K410V (synthetic construct (mouse Zif268 scaffold)) (UniProt P08046); conditions: Zn; E. coli B1H, 28-bp random library, 5 or 20 mM 3-AT, 37 C; residues 333-418; only the motif is given
[17] = target: RA three-finger array, finger 2 RSDNLRM E352N,T354R,R355A,H380N,T382R,T383M,D407A,E408N,R409L,K410V (synthetic construct (mouse Zif268 scaffold)) (UniProt P08046); conditions: Zn; E. coli B1H, 28-bp random library, 5 or 20 mM 3-AT, 37 C; residues 333-418; only the motif is given
[18] = target: RA three-finger array, finger 2 RSDYLRM E352N,T354R,R355A,H380Y,T382R,T383M,D407A,E408N,R409L,K410V (synthetic construct (mouse Zif268 scaffold)) (UniProt P08046); conditions: Zn; E. coli B1H, 28-bp random library, 5 or 20 mM 3-AT, 37 C; residues 333-418; only the motif is given
[19] = target: RA three-finger array, finger 2 RSDNLRQ E352N,T354R,R355A,H380N,T382R,T383Q,D407A,E408N,R409L,K410V (synthetic construct (mouse Zif268 scaffold)) (UniProt P08046); conditions: Zn; E. coli B1H, 28-bp random library, 5 or 20 mM 3-AT, 37 C; residues 333-418; only the motif is given
[20] = target: RA three-finger array, finger 2 RSDYLTN E352N,T354R,R355A,H380Y,T383N,D407A,E408N,R409L,K410V (synthetic construct (mouse Zif268 scaffold)) (UniProt P08046); conditions: Zn; E. coli B1H, 28-bp random library, 5 or 20 mM 3-AT, 37 C; residues 333-418; only the motif is given
[21] = target: Zif three-finger array, finger 2 DSSNLRS R377D,D379S,H380N,T382R,T383S,D407A,E408N,R409L,K410V (synthetic construct (mouse Zif268 scaffold)) (UniProt P08046); conditions: Zn; E. coli B1H, 28-bp random library, 5 or 20 mM 3-AT, 37 C; residues 333-418; only the motif is given
[22] = target: Zif three-finger array, finger 2 HSSNLTH R377H,D379S,H380N,T383H,D407A,E408N,R409L,K410V (synthetic construct (mouse Zif268 scaffold)) (UniProt P08046); conditions: Zn; E. coli B1H, 28-bp random library, 5 or 20 mM 3-AT, 37 C; residues 333-418; only the motif is given

Row | Sequence | binding signal [1] | binding signal [2] | binding signal [3] | binding signal [4] | binding signal [5] | binding signal [6] | binding signal [7] | binding signal [8] | also measured
1 | GAGCATAAG (double strand) [RA-CAT] | 0.042 | 0.05 | 0.069 | 0.052 | 0.042 | 0.05 | 0.08 | 0.053 | 
2 | GAGCAAGCG (double strand) [Zif-CAA] |  |  |  |  |  |  |  |  | binding result [9]: binds
3 | GAGCAGGCG (double strand) [Zif-CAG] |  |  |  |  |  |  |  |  | binding result [10]: binds
4 | GAGGAGAAG (double strand) [RA-GAG] | 0.05 | 0.053 | 0.066 | 0.064 |  | 0.061 | 0.058 |  | binding signal [11]: 0.059; binding signal [12]: 0.049
5 | GAGCACAAG (double strand) [RA-CAC] |  |  | 0.057 | 0.047 | 0.041 | 0.056 | 0.051 | 0.047 | binding signal [13]: 0.084; binding signal [14]: 0.046
6 | GAGCAAAAG (double strand) [RA-CAA] | 0.047 | 0.054 |  | 0.061 | 0.065 | 0.071 | 0.082 | 0.07 | binding signal [11]: 0.067; binding signal [14]: 0.066
7 | GAGCATGCG (double strand) [Zif-CAT] |  |  |  |  |  |  |  |  | binding result [15]: no binding
8 | GAGTAGAAG (double strand) [RA-TAG] |  |  |  |  |  |  |  |  | binding result [16]: binds; binding result [17]: binds; binding result [18]: binds
9 | GAGAAGAAG (double strand) [RA-AAG] | 0.042 | 0.045 | 0.053 | 0.062 | 0.057 | 0.05 | 0.05 | 0.05 | binding signal [11]: 0.074; binding signal [12]: 0.075; binding result [19]: binds; binding result [20]: binds
10 | GAGCACGCG (double strand) [Zif-CAC] |  |  |  |  |  |  |  |  | binding result [21]: binds; binding result [22]: no binding
11 | GAGCAGAAG (double strand) [RA-CAG] | 0.048 | 0.053 | 0.071 |  | 0.086 | 0.053 | 0.06 |  | 

For some assays here: Negatives hold for the conditions tested. For some assays here: Whether high values mean tight binding is not given here for every scale.
